Experimental data published in patent publication US9296811B2, “Methods for treating a tumor using an antibody that specifically binds HMW-MAA” (University of Pittsburgh—Of the Commonwealth System of …, priority 2010, dated 2016).
Some of these results come from one statement about several compounds together.

System: V600E mutated melanoma cell lines
Assay: Secondary resistance of V600E melanoma cell lines under increasing doses of BRAF-I in vitro
Assay type: cell-based, human
Conditions: increasing doses (2.5-10 μM), BRAF-I sensitive V600E lines

Question: How did the “time of in vitro treatment until cells became secondary resistant” value turn out when `CCCS(=O)(=O)Nc1ccc(F)c(C(=O)c2c[nH]c3ncc(Cl)cc23)c1F` [PLX4720] was run?
Answer: 3-4 week
